Results published in article PMC3376134, “Regulation of the Escherichia coli HipBA Toxin-Antitoxin System by Proteolysis” (PLoS ONE, 2012).
The exact form of at least one protein or probe is not confirmed. The comparison behind a weaker result is the experiment's own reference, which may not be listed here. Where a protein sequence is shown, tags need not be part of it.

Biological target: T1, HipA (Escherichia coli) (UniProt P23874)
T1 sequence (looked up, limits assumed): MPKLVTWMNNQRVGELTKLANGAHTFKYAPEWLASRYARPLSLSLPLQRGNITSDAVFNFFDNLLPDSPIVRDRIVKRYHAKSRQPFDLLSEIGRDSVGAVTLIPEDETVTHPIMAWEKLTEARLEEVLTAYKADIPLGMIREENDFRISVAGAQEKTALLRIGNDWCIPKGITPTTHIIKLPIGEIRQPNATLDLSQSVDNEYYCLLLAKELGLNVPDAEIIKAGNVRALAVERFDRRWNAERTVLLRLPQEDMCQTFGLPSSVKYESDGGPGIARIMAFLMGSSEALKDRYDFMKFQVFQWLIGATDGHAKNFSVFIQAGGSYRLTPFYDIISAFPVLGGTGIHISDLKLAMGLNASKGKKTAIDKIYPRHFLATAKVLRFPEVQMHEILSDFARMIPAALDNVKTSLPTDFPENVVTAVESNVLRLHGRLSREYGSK
Assay: fluorescence polarization
Settings: no HipB, linear, nonspecific DNA binding; 20 mM Tris-HCl pH 7.5, 100 mM NaCl, 5% glycerol, 10 C, 1 nM labeled DNA; recombinant protein; protein details: His6 (Ni-NTA purified, pET28a); label: 5'-6-carboxyfluorescein on top strand

“TTATCCGCTTAAGGGGATATTATAAGTTTTATCCTTTAGTGAGGATAA (double strand) [hipBA O1O2 operator]”: binds more weakly.
